{"source": "paper PMC8881624", "binders": {"B1": {"name": "Bmc1-Twinstrep (protein, UniProt Q9Y7L2 1-268)", "chain": "MSNFQHGNYHSYYSMRGGTSIIDPRLKCLPDSLFYEASVLDIGCNNGTVSAQIASIFGASFVLGLDIDHVLIQKARKHLEFVSSRIGPVRNPGSIVEDQFNYYPISSIKKFSRIPVQLQPPLNKQNFPHNIEFETADFLRWESKRKFKIILALSVSKWVHLNNHDEGIIKFFGKISSLLETNGVLILEPQGWDSYLKAAKKISVFNQTPENLKIQPDAFEHLLNQAGLVLEYSIEPQVNNSEYKNFAKRTMYIYKKKGIGIIKLLTST"}}, "target": "T1, Lsm4-cMyc (S. pombe) (UniProt O14352)", "T1 sequence": "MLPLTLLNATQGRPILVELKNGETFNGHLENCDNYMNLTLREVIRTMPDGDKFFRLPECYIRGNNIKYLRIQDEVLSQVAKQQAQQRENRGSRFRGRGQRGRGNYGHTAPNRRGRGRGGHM", "experiment": "co-IP; S. pombe cell-free extract in TMG(300), antibody-coated protein G Dynabeads (anti-FLAG, anti-V5 or anti-c-Myc), 4 h at 4 °C, western blot; beads also treated with RNase A or Benzonase (15 min, 37 °C); Pof8-Thc1 also in bmc1Δ background", "note": "Results are given in words; binding and its absence hold for the method and conditions named. Binding seen in cells or lysates may run through a third protein. Some entries that bind do so weakly or less than the wild type. Where a sequence is shown, tags or fusion partners need not be part of it."}
{"binder": "B1", "values": [{"measurement": "binding", "value": "binds"}]}
